As a reminder, the AC50 is the concentration at which the activity in the assay is half-maximal.

Some of the results follow. Shown are side measurements of this screen, not its main read-out; they come without a call. Most of these compounds were active or inconclusive in the main read-out, so they are no random draw. Potencies come from curve fits of mixed quality, noted in brackets.

This assay can be described thus: IkB Signaling. The settings on record: ABC-DLBCL IkBa-CBG/CBR dual luciferase ratio (green luciferase fused to IkBa over red control in OCI-Ly3 lymphoma cells), 4 h. The procedure, abridged:
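Curves were fitted separately to fusion (green), unfused (red) and ratio luminescence, then classed by r2, magnitude and activity. Cells: OCI-Ly3, 4 h compound plus doxycycline at 37C; 10 uM MG-132 defined full response.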

Where [1] appears, read: measured here: control luc red channel unless noted.

For the compound `c1ccc(-n2nnc3cnccc32)cc1`, the AC50 under setting [1] was 1.26 µM [falling, full curve].

`CCCCN(C)CCNC(=O)c1cc(-c2cccnc2)nc2ccc(S(=O)(=O)N3CCC(C)CC3)cc12`: the AC50 under setting [1] was 25.1 µM [falling, single point].

Turning to `O=C(COc1ccccc1F)Nc1ccc(C(=O)OCc2cc(=O)n3nc(C4CC4)sc3n2)cc1`, under setting [1], the AC50 was 7.94 µM [rising, single point]. For the compound `Cc1ccc(NC(=O)CCSCCc2ccccn2)cc1`, under setting [1], the AC50 is 15.8 µM [falling, partial curve]. The same measure, in the same setting: then `CCc1ccc(-n2c(C)nnc2SCc2nc(-c3ccc(OC)cc3)no2)cc1`, with 25.1 µM [falling, partial curve]; and `O=C(Nc1ccc(Cl)cc1Cl)c1cc(S(=O)(=O)N2CCN(c3ccccc3F)CC2)ccc1F`, with 3.98 µM [falling, full curve]; and `CCOC(=O)Cc1csc(NC(=O)c2csc3c2CCCC3)n1`, with 1.58 µM [falling, full curve]. Same read-out and setting: then `Cc1cccc(-c2nnc(-c3ccccc3)o2)c1`, with 20 µM [falling, single point]; and `Cc1ccc(S(=O)(=O)n2nc(OC(=O)c3cccs3)cc2N)cc1`, with 39.8 µM [rising, partial curve] [measured here: IkB-luc green channel]; and `O=S(=O)(c1ccccc1)N1CCN(c2ncnc3sc(-c4ccccc4)cc23)CC1`, with 10 µM [falling, partial curve]. On the same count and under the same terms, then `CC(C)(C)OC(=O)N1CCC(c2c(C(=O)NCc3ccc4c(c3)OCO4)cnn2-c2ccc(F)cc2F)CC1`, with 15.8 µM [falling, partial curve]; and `COc1ccc(CNC(=O)c2ccc3c(c2)N(Cc2ccccc2)C(=O)c2ccccc2S3(=O)=O)cc1`, with 7.94 µM [falling, full curve]; and `CCOc1ccccc1-c1nnc(SCc2ccc(Cl)cc2)o1`, with 31.6 µM [falling, single point]. Turning to `Cc1nn(Cc2ccccc2Cl)c(C)c1NC(=O)c1noc2c1CCCCC2`, the AC50 under setting [1] is 2.51 µM [falling, full curve, poor fit].

In the case of `CCCN(C(=O)c1cc2c(Cl)nc3ccccc3c2s1)c1cccc(C)c1`, the AC50 under setting [1] is 3.98 µM [falling, full curve].

Turning to `COc1ccc(Cl)cc1Nc1sc(C(=O)c2ccccc2)c(N)c1C(=O)Nc1ccccc1`, under setting [1], the AC50 is 15.8 µM [falling, partial curve].

`Clc1ccc(Cn2ncc3c(N4CCCCC4)ncnc32)cc1`: under setting [1], the AC50 is 15.8 µM [falling, partial curve]. On the same count and under the same terms, the figure for `CCc1c(C)sc2c1CCN(Cc1cccc(F)c1)C2c1ccccc1` (configuration not stated) is 25.1 µM [falling, single point]; for `CCCN(C/C=C\I)[C@@H]1CCc2cccc(O)c2C1` it is 63.1 µM [falling, partial curve, poor fit]. Same read-out and setting: the figure for `COc1ccc(NS(=O)(=O)c2ccc3oc4ccccc4c3c2)cn1` is 15.8 µM [falling, partial curve]; for `Cc1ccc(Nc2nc(N)nc(CN3CCN(c4ccccc4F)CC3)n2)cc1` it is 10 µM [falling, partial curve].

Take `Cn1c(=O)cc(OCC(=O)N2CCC(N3CCCCC3)CC2)c2ccccc21`: under setting [1], the AC50 was 31.6 µM [rising, single point] [measured here: IkB-luc green channel]. Still for that read-out and setting: then `Cc1ccc(NC2=C(c3ccc(C(F)(F)F)cc3)C(=O)c3ccccc32)cc1C`, with 15.8 µM [falling, single point]; and `Cc1ccc(S(=O)(=O)c2nc(-c3ccccc3F)oc2N2CCCCC2)cc1`, with 20 µM [falling, single point]. Still for that read-out and setting: then `Cc1ccc(-c2cc(C(=O)NCc3cnn(C)c3C)c3cc(Br)ccc3n2)cc1`, with 12.6 µM [falling, partial curve]. The same measure, in the same setting: then `N#CCCSCc1ccc2oc(C(=O)O)cc2c1`, with 39.8 µM [rising, single point] [measured here: IkB-luc green channel]; and `Brc1ccc(CSc2nnc(-c3cnccn3)n2Cc2ccco2)cc1`, with 25.1 µM [falling, partial curve]; and `CCOC(=O)c1ccccc1NC(=O)Cn1cc(C(=O)c2cccc(OC)c2)c(=O)c2ccc(C)nc21`, with 39.8 µM [falling, single point].

For the compound `Cc1ccc(CCNC(=O)c2ccc3c(c2)N(Cc2cccc(C)c2)C(=O)c2ccccc2S3(=O)=O)cc1`, the AC50 under setting [1] was 25.1 µM [rising, partial curve, poor fit]. On the same count and under the same terms, the figure for `CC(C)c1ccc(NC(=O)c2cc3c(s2)-c2ccccc2SC3)cc1` is 12.6 µM [falling, partial curve]. Still for that read-out and setting: the figure for `O=C(CN1C(=O)COc2ccc(S(=O)(=O)N3CCCCCC3)cc21)NCc1ccc(Cl)cc1` is 10 µM [falling, partial curve, poor fit]; for `CCOc1ccc(NC(=O)c2ccc3c(SCC(=O)O)c4c(nc3c2)CCCC4)cc1` it is 3.16 µM [falling, full curve].

In the case of `Cc1ccc(C(=O)N2CCc3cc(CNS(=O)(=O)c4ccc(Cl)s4)ccc32)cc1`, the AC50 under setting [1] was 0.398 µM [falling, single point]. As to `O=C(CN1CCN(S(=O)(=O)c2cc(Cl)ccc2Cl)CC1)Nc1cccc(F)c1`, the AC50 under setting [1] was 39.8 µM [falling, single point]. Turning to `Fc1ccc(-c2nc(Nc3ccc(F)c(Cl)c3)nc3c2COc2ccccc2-3)cc1`, under setting [1], the concentration at half-maximal activity (AC50) was 10 µM [falling, partial curve]. On to `CC(C(=O)Nc1cccc(C#N)c1)n1nc(-c2ccccc2)c2c(c1=O)CCCC2` (configuration not stated), for which, under setting [1], the AC50 is 10 µM [falling, partial curve]. On the same count and under the same terms, then `CC1=C(C(=O)Nc2ccc(C)cc2C)C(c2ccccc2[N+](=O)[O-])n2ncc(C(=O)Nc3ccccc3)c2N1` (configuration not stated), with 20 µM [falling, single point]; and `CCOC(=O)C1CCCN(C(=O)c2ccc3c(c2)N(Cc2ccccc2)C(=O)c2ccccc2S3(=O)=O)C1` (configuration not stated), with 39.8 µM [falling, single point]. Turning to `Cc1nn(C)c(C)c1CN(C)C(=O)c1cnn2c1NC(c1ccccc1)CC2C(F)(F)F` (configuration not stated), the AC50 under setting [1] is 1.58 µM [rising, partial curve] [measured here: IkB-luc green channel]. Same read-out and setting: the figure for `O=C(NCC(c1cccnc1)N1CCc2ccccc2C1)c1ccc(F)c(F)c1` (configuration not stated) is 39.8 µM [falling, single point]; for `CCOC(=O)c1ccccc1NC(=O)CSc1nnc(COc2ccccc2C)n1C` it is 25.1 µM [falling, partial curve]; for `COc1cc(C(=O)Nc2nc(-c3cccs3)cs2)cc(OC)c1OC` it is 3.16 µM [falling, full curve, poor fit]. On the same count and under the same terms, then `CCS(=O)(=O)N1CCc2cc(C(=O)NCc3ccc(OC)cc3)ccc21`, with 10 µM [falling, partial curve]; and `c1ccc2c(c1)CCCN2Cc1nnnn1C1CCCC1`, with 25.1 µM [rising, partial curve]; and `COC(=O)c1[nH]c2ccc(C)cc2c1NC(=O)CN1CCCc2ccccc21`, with 15.8 µM [falling, partial curve].

On to `CCOC(=O)c1ccc(NC(=O)CCCc2nc(-c3ccccc3Cl)no2)cc1`, for which the AC50 under setting [1] was 25.1 µM [falling, single point]. Same read-out and setting: then `CCOc1ccc(-c2cc(NC(=O)Nc3cccc(C(C)=O)c3)c(C(=O)OC)s2)cc1`, with 7.94 µM [rising, full curve]. Still for that read-out and setting: the figure for `[O-]/[N+](=C/c1cccnc1)c1ccc(Br)cc1` is 7.94 µM [falling, full curve, poor fit]. As to `CCOC(=O)CSc1nc2ccc(NC(=O)c3ccc(C)cc3)cc2s1`, under setting [1], the AC50 was 20 µM [falling, partial curve]. Same read-out and setting: the figure for `COc1cccc(N2CCN(C(=O)C(CCSC)NS(=O)(=O)c3ccc4c(c3)oc(=O)n4C)CC2)c1` (configuration not stated) is 1 µM [rising, full curve]; for `CCc1ccc(CNC(=O)Cc2ccc(NC(=O)N3CCSc4ncccc43)cc2)cc1` it is 12.6 µM [falling, partial curve, poor fit]. The same measure, in the same setting: the figure for `CCn1c2ccccc2c2cc(CN3CCN(C(=O)c4ccco4)CC3)ccc21` is 12.6 µM [falling, partial curve]; for `Cc1ccc(CNC(=O)Cn2nc(C)n3cccc3c2=O)cc1` it is 2.51 µM [rising, partial curve, poor fit]. On the same count and under the same terms, then `CN(C)CCCSc1ccccc1NC(=O)/C=C\c1ccccc1`, with 0.158 µM [falling, full curve]. On to `Cc1cc(C)cc(C(=O)Nc2ccc(-c3nc4ncccc4o3)cc2)c1`, for which the AC50 under setting [1] is 10 µM [falling, single point].

For `Cc1c2cnn(CC(=O)N3CCN(c4ccc(F)cc4)CC3)c(=O)c2c(C)n1Cc1ccc(F)cc1`, the AC50 under setting [1] is 12.6 µM [falling, partial curve].

With `COc1c(C)cc(S(=O)(=O)NCCc2c(C)[nH]c3ccccc23)c(C)c1C`, under setting [1], the AC50 is 39.8 µM [falling, single point].

In the case of `COc1ccccc1CNC(=O)CCn1c(=O)c2ccccc2n(CC(=O)Nc2cccc(Cl)c2)c1=O`, the concentration at half-maximal activity (AC50) (measured here: IkB-luc green channel) is 39.8 µM [rising, single point] and the AC50 (measured here: control luc red channel) was 3.98 µM [falling, full curve].

As to `Cc1c(NC(=O)c2cc(-c3ccc(Cl)c(Cl)c3)on2)c(=O)n(-c2ccccc2)n1C`, the AC50 under setting [1] was 12.6 µM [falling, partial curve]. On the same count and under the same terms, the figure for `CCc1cccc(-n2c(C)nc3c(cnn3-c3ccc(Cl)cc3)c2=O)c1` is 31.6 µM [falling, single point]; for `Cc1cn2c(=O)cc(COc3cccc(NC(=O)c4ccccc4C)c3)nc2s1` it is 0.794 µM [falling, full curve].
